Measured values from patent US8492105B2, “Screening method for an insulin resistance improving agent or a therapeutic agent for diabetes” (Fujitsu Limited, priority 2009, dated 2013).
Part of at least one peptide drawing is inferred or uncertain, most often the ends. No end group written: not given here.

Amino acid sequences for entries named in this document (tags omitted).
UniProt P28482, whole entry: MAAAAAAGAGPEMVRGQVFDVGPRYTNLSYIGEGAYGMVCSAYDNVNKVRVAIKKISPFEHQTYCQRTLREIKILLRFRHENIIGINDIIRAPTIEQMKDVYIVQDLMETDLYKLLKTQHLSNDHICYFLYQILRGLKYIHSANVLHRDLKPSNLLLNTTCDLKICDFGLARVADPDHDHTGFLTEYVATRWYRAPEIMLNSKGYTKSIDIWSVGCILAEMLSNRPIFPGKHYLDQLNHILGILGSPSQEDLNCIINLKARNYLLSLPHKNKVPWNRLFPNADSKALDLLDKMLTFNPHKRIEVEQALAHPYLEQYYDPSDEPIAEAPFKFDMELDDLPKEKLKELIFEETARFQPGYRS

How the values were obtained:
[1] = tested on: db/db mice; experiment: Efficacy test, 28-day daily intraperitoneal injection (blood glucose, insulin, HOMA-IR); type: in vivo, mouse; conditions: for Increment in fasting blood glucose level / Increment in fasting blood insulin level: Day 28 minus Day 0; for Increment in postprandial blood glucose level: Day 28 minus Day 0 as printed
Procedure: Fifty mice described in Test Example 2 were used as a test animal.
Specifically, 3.8 mg of the above peptide was dissolved in 4.75 mL of physiological saline to prepare a 0.8 mg/mL peptide solution (hereinafter may be referred to as “peptide solution 2”). Then, 1.75 mL of the peptide solution 2 was dissolved in 3.5 mL of physiological saline to prepare a 0.27 mg/mL peptide solution (hereinafter may be referred to as “peptide solution 3”). Further, 1 mL of the peptide solution 3 was dissolved in 2 mL of physiological saline to prepare a 0.09 mg/mL peptide solution (hereinafter may be referred to as “peptide solution 4”).
A metformin solution used for an activity control group was prepared as follows. Specifically, 120 mg of metformin (product of Sigma Co.) was dissolved in 4 mL of physiological saline to prepare a 30 mg/mL metformin solution.
The efficacy test was conducted using the following five administration groups: a solvent (physiological saline) control administration group, a 150 mg/kg metformin administration group (serving as an activity control group), a 4.00 mg/kg peptide (expressed by SEQ ID No. 1) administration group, a 1.33 mg/kg peptide administration group and a 0.44 mg/kg peptide administration group. Each administration group had 10 mice.
The above-prepared solutions were intraperitoneally injected every day to all of the mice of the test groups at the corresponding doses given in the following Table 4 for 28 days. The body weight, the fasting blood glucose level, the postprandial blood glucose level and the fasting blood insulin level were measured by the below-described measuring method according to the measurement schedule given in the following Table 5.
The calculating method for the HOMA-IR value is described below.
To measure the fasting blood glucose level and blood insulin level, 50 μL of blood was sampled from the postorbital region on Day 0, Day 14 and Day 28 after administration. The serum was obtained in the same manner as in Test Example 2.
The postprandial blood glucose level was measured using blood sampled from the tail vein on Day 1, Day 13, and Day 27 after administration.
The blood glucose level and blood insulin level were measured in the same manner as in Test Example 2.
The insulin resistance was determined by the HOMA (homeostasis model assessment) method using the following calculation formula. HOMA-IR (index of insulin resistance)=fasting insulin level (μU/mL)×fasting blood glucose level (mmol/L)/22.5
All of the values are indicated as “average value±average error.” The important differences between the groups and within each group were evaluated through one-way variance analysis and Dunnett's multiple comparison. The p-values equal to or lower than 0.05 were regarded as statistically significant.

[2] = molecular target: T1, phosphorylation of Ser727 of STAT3 by ERK2 (Homo sapiens, UniProt P28482); experiment: Phosphorylation inhibitory activity test by western blotting (anti-pS727 STAT); type: biochemical
T1 construct: purchased Biosource Inc. (Active ERK); Abcam Inc. (STAT3)

[3] = Peptide 0.44 mg/kg group, Day 0
[4] = Peptide 0.44 mg/kg intraperitoneal every day, Day 28
[5] = Peptide 0.44 mg/kg intraperitoneal every day
[6] = Peptide 1.33 mg/kg group, Day 0
[7] = Peptide 1.33 mg/kg intraperitoneal every day, Day 28, # p < 0.05 vs. solvent control group
[8] = Peptide 1.33 mg/kg intraperitoneal every day
[9] = Peptide 4.00 mg/kg group, Day 0
[10] = Peptide 4.00 mg/kg intraperitoneal every day, Day 28, # p < 0.05 vs. solvent control group
[11] = Peptide 4.00 mg/kg intraperitoneal every day

KKYILAL [Peptide, Lys-Lys-Tyr-Ile-Leu-Ala-Leu]
fasting blood insulin level and HOMA-IR value, change vs solvent control group ([1]; 1.33 mg/kg and 4.00 mg/kg peptide administration groups, Day 28): significantly decreased | fasting blood insulin level and HOMA-IR level compared with metformin group ([1]; 1.33 mg/kg or 4.00 mg/kg peptide vs 150 mg/kg metformin, Day 28): decreased as compared with the 150 mg/kg metformin administration group | Fasting blood glucose level [1, 3]: 14.1 ± 1.4 mM | Fasting blood insulin level [1, 3]: 8.45 ± 0.6 ng/mL | HOMA-IR value [1, 3]: 155.6 ± 16.6 | Postprandial blood glucose level ([1]; Peptide 0.44 mg/kg group, Day 1): 22.9 ± 1.5 mM | Postprandial blood glucose level ([1]; Peptide 0.44 mg/kg intraperitoneal every day, Day 13): 27.9 ± 0.8 mM | Fasting blood glucose level ([1]; Peptide 0.44 mg/kg intraperitoneal every day, Day 14): 16.5 ± 1.1 mM | Postprandial blood glucose level ([1]; Peptide 0.44 mg/kg intraperitoneal every day, Day 27): 29.4 ± 0.8 mM | Fasting blood insulin level [1, 4]: 4.23 ± 1.12 ng/mL | HOMA-IR value [1, 4]: 79.8 ± 21.4 | Fasting blood glucose level ([1]; Peptide 0.44 mg/kg intraperitoneal every day, Day 28, # p < 0.05 vs. solvent control group): 19.3 ± 1.1^# mM | Increment in fasting blood glucose level [1, 5]: 5.7 ± 1.8 mM | Increment in fasting blood insulin level [1, 5]: -4.12 ± 1.3 ng/mL | Increment in postprandial blood glucose level [1, 5]: 6.7 ± 2.2 mM | Fasting blood glucose level [1, 6]: 13.6 ± 1.2 mM | Fasting blood insulin level [1, 6]: 9.05 ± 1.17 ng/mL | HOMA-IR value [1, 6]: 157.4 ± 19.2 | Postprandial blood glucose level ([1]; Peptide 1.33 mg/kg group, Day 1): 22.4 ± 1.6 mM | Postprandial blood glucose level ([1]; Peptide 1.33 mg/kg intraperitoneal every day, Day 13): 31.0 ± 0.7 mM | Fasting blood glucose level ([1]; Peptide 1.33 mg/kg intraperitoneal every day, Day 14): 17.4 ± 1.3 mM | Postprandial blood glucose level ([1]; Peptide 1.33 mg/kg intraperitoneal every day, Day 27): 30.1 ± 1.3 mM | Fasting blood glucose level ([1]; Peptide 1.33 mg/kg intraperitoneal every day, Day 28): 21.5 ± 1.7 mM | Fasting blood insulin level [1, 7]: 3.59 ± 0.79^# ng/mL | HOMA-IR value [1, 7]: 76.1 ± 17.3^# | Increment in fasting blood glucose level [1, 8]: 7.9 ± 1.5 mM | Increment in fasting blood insulin level [1, 8]: -5.52 ± 1.33 ng/mL | Increment in postprandial blood glucose level [1, 8]: 7.7 ± 1.4 mM | Fasting blood glucose level [1, 9]: 13.5 ± 1.5 mM | Fasting blood insulin level [1, 9]: 8.87 ± 0.69 ng/mL | HOMA-IR value [1, 9]: 149.1 ± 11.5 | Postprandial blood glucose level ([1]; Peptide 4.00 mg/kg group, Day 1): 23.0 ± 1.7 mM | Postprandial blood glucose level ([1]; Peptide 4.00 mg/kg intraperitoneal every day, Day 13): 30.3 ± 0.9 mM | Fasting blood glucose level ([1]; Peptide 4.00 mg/kg intraperitoneal every day, Day 14): 15.2 ± 1.2 mM | Postprandial blood glucose level ([1]; Peptide 4.00 mg/kg intraperitoneal every day, Day 27): 28.3 ± 1.0 mM | Fasting blood glucose level ([1]; Peptide 4.00 mg/kg intraperitoneal every day, Day 28): 22.3 ± 1.0 mM | Fasting blood insulin level [1, 10]: 3.36 ± 0.41^# ng/mL | HOMA-IR value [1, 10]: 71.4 ± 8.6^# | Increment in fasting blood glucose level [1, 11]: 8.8 ± 1.4 mM | Increment in fasting blood insulin level [1, 11]: -3.51 ± 0.96 ng/mL | Increment in postprandial blood glucose level [1, 11]: 5.3 ± 1.4 mM | fasting blood insulin level and HOMA-IR level, dose dependence ([1]; peptide administration groups 0.44, 1.33, 4.00 mg/kg, Day 28): decreased in a dose-dependent manner | suppressions of increase in fasting blood glucose level (significance) ([1]; peptide administration groups (0.44, 1.33, 4.00 mg/kg), test period of 28 days): not statistically significant | phosphorylation inhibitory activity compared with 5-iodotubercidin ([2]; 1 mM peptide (Sample 4) vs 5-iodotubercidin (Sample 3)): higher than that of the 5-iodotubercidin | band of STAT3 whose Ser727 has been phosphorylated (western blotting) ([2]; 1 mM peptide, 10% DMSO (Sample 4), 30° C. 130 min, control Sample 2): no band was detected
